Assay results: article PMC9177694
Results are given in words; binding and its absence hold for the method and conditions named. In cells and extracts the contact can be indirect. Some results given as binding are weak or reduced against the parent protein; the word gives no strength. Tags and fused reporters may be left off the sequences shown.

Target: T1, Myc-tagged-CYLD (UniProt Q9NQC7)
T1 sequence: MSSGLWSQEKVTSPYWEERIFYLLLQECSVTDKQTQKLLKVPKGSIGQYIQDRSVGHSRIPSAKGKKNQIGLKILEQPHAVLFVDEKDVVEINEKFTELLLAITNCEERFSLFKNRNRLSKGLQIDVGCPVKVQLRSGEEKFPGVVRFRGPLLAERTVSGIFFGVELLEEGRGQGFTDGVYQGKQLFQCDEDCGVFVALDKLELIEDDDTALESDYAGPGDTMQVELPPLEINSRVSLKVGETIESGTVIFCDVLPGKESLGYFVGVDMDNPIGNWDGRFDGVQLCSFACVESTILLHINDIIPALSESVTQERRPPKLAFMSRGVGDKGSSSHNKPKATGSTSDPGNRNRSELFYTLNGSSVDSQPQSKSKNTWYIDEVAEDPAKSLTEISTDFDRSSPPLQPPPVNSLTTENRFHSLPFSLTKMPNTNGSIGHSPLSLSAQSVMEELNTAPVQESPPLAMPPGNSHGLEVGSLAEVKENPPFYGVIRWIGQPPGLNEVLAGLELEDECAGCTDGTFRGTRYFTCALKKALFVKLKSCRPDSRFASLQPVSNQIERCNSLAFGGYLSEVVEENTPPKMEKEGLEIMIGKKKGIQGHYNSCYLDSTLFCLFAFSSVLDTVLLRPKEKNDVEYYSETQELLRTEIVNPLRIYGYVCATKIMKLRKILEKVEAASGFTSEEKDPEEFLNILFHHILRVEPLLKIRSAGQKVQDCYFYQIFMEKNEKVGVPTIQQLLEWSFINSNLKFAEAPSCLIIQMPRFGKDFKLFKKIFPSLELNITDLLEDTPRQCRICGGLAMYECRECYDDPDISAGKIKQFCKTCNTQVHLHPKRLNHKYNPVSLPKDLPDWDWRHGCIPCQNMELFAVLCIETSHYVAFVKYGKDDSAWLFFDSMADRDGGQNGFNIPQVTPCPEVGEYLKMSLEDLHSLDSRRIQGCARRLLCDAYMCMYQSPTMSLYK
Assay: co-IP; 293T cells transfected with Bcl-3 and CYLD for 48 h; lysates immunoprecipitated with anti-Myc or anti-Flag antibody, control IgG beside; immunoblotting

- binding: binds
B1: Flag-tagged-Bcl-3 (protein, UniProt P20749 1-454)
chain: MPRCPAGAMDEGPVDLRTRPKAAGLPGAALPLRKRPLRAPSPEPAAPRGAAGLVVPLDPLRGGCDLPAVPGPPHGLARPEALYYPGALLPLYPTRAMGSPFPLVNLPTPLYPMMCPMEHPLSADIAMATRADEDGDTPLHIAVVQGNLPAVHRLVNLFQQGGRELDIYNNLRQTPLHLAVITTLPSVVRLLVTAGASPMALDRHGQTAAHLACEHRSPTCLRALLDSAAPGTLDLEARNYDGLTALHVAVNTECQETVQLLLERGADIDAVDIKSGRSPLIHAVENNSLSMVQLLLQHGANVNAQMYSGSSALHSASGRGLLPLVRTLVRSGADSSLKNCHNDTPLMVARSRRVIDILRGKATRPASTSQPDPSPDRSANTSPESSSRLSSNGLLSASPSSSPSQSPPRDPPGFPMAPPNFFLPSPSPPAFLPFAGVLRGPGRPVPPSPAPGGS
